# In the supplement of paper PMC10849652:
# Chains of the proteins cited; added tags and fusions are not shown. Lines headed by an entry give the natural chain unless they say otherwise; changes in a name come on top.
# POLG, A0A3B3IS91, UniProt A0A3B3IS91, whole entry, looked up: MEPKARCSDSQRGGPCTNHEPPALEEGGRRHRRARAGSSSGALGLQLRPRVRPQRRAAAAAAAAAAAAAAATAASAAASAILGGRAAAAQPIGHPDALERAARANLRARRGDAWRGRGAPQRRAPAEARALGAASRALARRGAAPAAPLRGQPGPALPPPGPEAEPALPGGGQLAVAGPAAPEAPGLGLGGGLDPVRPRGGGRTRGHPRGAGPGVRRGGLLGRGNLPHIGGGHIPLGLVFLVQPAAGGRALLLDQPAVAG
# UniProt P62937, whole entry, looked up: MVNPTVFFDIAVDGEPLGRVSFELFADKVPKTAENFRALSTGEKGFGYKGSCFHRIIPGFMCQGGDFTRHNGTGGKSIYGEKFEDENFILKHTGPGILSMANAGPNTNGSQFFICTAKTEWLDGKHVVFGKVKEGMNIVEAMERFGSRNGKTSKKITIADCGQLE
# UniProt Q9H237: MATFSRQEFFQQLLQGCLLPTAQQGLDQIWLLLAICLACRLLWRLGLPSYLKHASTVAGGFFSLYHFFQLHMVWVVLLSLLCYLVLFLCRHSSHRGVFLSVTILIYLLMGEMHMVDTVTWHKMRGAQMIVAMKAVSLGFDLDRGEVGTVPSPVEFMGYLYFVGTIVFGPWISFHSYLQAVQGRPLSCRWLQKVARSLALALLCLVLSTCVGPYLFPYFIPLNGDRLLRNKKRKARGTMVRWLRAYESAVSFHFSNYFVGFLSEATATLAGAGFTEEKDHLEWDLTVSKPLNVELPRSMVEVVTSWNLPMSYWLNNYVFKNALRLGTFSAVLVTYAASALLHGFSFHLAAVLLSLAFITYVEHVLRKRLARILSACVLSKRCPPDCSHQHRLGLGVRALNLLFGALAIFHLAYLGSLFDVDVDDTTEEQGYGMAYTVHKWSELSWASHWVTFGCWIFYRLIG
# UniProt Q8NEY8: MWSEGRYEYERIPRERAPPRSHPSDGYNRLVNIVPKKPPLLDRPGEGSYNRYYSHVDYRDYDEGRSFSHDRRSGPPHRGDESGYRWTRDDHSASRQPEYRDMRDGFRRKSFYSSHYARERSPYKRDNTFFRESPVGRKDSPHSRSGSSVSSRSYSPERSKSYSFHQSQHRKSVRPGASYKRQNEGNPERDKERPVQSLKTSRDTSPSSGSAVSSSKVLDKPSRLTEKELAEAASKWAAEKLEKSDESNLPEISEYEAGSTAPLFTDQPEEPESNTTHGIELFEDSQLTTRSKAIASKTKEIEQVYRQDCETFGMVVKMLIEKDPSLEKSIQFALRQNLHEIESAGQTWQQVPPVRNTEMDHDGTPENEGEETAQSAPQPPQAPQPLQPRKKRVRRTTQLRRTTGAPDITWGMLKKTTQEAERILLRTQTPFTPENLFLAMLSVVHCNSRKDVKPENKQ
# UniProt O75688: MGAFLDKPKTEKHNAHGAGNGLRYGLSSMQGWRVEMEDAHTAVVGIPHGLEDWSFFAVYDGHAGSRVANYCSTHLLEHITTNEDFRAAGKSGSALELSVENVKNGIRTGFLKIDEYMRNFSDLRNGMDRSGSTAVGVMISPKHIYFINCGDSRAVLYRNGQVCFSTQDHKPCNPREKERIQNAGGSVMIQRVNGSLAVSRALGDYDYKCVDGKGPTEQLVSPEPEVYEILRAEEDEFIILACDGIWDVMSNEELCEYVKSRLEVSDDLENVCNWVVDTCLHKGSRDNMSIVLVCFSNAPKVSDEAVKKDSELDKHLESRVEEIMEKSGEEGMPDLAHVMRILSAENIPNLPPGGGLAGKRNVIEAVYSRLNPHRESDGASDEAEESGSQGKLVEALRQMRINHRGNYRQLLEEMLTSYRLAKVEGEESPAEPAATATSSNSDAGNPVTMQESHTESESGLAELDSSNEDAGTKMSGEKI
# UniProt Q13427: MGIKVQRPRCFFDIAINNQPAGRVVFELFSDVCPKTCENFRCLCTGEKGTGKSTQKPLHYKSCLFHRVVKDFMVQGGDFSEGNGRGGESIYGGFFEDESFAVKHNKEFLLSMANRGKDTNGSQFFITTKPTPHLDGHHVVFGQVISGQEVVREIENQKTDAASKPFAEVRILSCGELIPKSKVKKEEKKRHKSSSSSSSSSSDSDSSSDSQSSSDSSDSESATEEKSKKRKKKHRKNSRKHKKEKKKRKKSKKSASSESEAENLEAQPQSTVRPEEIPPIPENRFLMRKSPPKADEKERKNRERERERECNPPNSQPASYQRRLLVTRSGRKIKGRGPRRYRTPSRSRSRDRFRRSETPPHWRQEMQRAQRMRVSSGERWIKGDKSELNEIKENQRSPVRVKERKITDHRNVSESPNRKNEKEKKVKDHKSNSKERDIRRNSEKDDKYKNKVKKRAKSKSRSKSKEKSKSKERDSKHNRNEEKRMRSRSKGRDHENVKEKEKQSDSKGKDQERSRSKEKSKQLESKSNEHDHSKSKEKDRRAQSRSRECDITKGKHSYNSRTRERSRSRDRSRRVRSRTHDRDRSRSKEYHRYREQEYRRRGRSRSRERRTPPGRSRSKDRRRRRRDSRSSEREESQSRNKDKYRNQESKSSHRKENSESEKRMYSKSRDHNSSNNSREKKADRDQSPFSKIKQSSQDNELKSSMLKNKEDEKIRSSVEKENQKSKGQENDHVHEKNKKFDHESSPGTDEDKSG
# UniProt Q9NR33: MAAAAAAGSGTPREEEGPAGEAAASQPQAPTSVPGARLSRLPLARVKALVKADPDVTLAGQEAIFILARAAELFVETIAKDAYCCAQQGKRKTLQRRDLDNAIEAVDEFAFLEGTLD
# UniProt Q8WVV4: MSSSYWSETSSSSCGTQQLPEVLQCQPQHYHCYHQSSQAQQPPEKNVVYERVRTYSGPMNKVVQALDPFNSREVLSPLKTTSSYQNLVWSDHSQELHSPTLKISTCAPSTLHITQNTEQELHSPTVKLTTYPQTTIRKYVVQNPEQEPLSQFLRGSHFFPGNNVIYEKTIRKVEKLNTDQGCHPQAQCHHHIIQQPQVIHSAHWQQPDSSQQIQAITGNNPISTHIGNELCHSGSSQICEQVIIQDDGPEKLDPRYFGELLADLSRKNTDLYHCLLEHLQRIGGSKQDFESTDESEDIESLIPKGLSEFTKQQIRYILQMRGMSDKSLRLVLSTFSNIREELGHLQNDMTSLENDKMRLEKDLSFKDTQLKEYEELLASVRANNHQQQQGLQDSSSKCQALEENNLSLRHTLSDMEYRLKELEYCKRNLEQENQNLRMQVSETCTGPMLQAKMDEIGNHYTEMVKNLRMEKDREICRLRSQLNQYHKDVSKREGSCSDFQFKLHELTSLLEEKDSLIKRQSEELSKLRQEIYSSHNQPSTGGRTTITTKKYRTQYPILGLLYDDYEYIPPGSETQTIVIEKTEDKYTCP
# UniProt Q8TD55: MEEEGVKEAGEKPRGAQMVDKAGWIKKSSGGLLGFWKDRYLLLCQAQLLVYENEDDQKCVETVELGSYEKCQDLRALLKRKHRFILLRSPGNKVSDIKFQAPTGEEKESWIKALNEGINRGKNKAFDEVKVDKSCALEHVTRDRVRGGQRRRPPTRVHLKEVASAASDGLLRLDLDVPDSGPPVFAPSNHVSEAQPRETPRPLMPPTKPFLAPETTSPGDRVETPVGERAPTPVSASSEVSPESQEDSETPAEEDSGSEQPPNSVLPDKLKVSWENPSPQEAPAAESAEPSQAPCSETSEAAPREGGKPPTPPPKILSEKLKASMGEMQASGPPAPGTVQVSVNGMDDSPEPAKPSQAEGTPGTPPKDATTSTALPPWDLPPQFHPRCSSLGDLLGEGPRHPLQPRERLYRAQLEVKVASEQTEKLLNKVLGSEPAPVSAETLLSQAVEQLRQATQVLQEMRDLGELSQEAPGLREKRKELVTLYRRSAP
# UniProt O60664: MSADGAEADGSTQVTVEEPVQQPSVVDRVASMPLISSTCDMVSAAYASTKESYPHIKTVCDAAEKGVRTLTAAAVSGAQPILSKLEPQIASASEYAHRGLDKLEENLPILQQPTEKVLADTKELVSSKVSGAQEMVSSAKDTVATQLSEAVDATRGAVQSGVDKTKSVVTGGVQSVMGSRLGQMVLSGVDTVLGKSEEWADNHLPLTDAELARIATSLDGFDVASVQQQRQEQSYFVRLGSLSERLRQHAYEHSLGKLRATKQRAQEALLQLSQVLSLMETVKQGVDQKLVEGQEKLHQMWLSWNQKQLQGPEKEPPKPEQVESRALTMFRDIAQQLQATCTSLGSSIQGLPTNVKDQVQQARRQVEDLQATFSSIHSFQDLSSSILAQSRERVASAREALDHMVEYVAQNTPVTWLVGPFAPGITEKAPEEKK
# Some of the results follow.
# Tests used:
# Experiment in all cases: log2 fold change, soluble protein after heating vs DMSO (PISA); higher = thermal stabilisation; K562 cells, 10 uM, 30 min; active = over 0.2 and 3.5 SD of the protein, either way, in both replicates (recomputed)
# [1] = compound: CN1CCN(CCOc2cc(OC3CCOCC3)c3c(Nc4c(Cl)ccc5c4OCO5)ncnc3c2)CC1 [saracatinib]
# Procedure, shortened: (§1)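 Thermal stability values are relative to control samples and come from duplicates. They are expressed as log2 fold changes. For measurement, K562 cells (2×10^6 cells/mL) received 10 μM compound for 30 min, and aliquots were heated for 3 min over 48°C-58°C, pooled, and extracted at 4°C in PBS with 0.5% NP-40. Soluble protein, the supernatant after 21,000xg for 90 min, was quantified by TMTpro 16plex LC-MS/MS with equalised channel sums.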
# [2] = compound: CN1CCc2c(c3ccccc3n2Cc2ccc(C(=O)NO)cc2)C1 [Tubastatin A]
# Procedure, shortened: as §1
# [3] = compound: CNC(=O)C1=CC=CC=C1NC2=NC(=NC=C2Cl)NC3=C(C=C(C=C3)N4CCOCC4)OC
# Procedure, shortened: as §1
# [4] = compound: CNc1nc(-c2ccc3c(N)n[nH]c3c2)cc(N2C[C@@H](C(=O)NC3CCCCC3)CC[C@H]2C)n1
# Procedure, shortened: as §1
# [5] = compound: COc1cc(Nc2ncc3c(n2)-c2ccc(Cl)cc2C(c2c(F)cccc2OC)=NC3)ccc1C(=O)O [alisertib]
# Procedure, shortened: as §1
# [6] = compound: COc1cccc2cc(-c3nc([C@H]4CC[C@H](C(=O)O)CC4)n4ncnc(N)c34)[nH]c12
# Procedure, shortened: as §1
# [7] = compound: CN1CC[C@H](c2c(O)cc(O)c3c(=O)cc(-c4ccccc4Cl)oc23)[C@H](O)C1 [alvocidib]
# Procedure, shortened: as §1
# [8] = compound: CNC(=O)c1ccc(Nc2ncc(C(F)(F)F)c(NCc3nccnc3N(C)S(C)(=O)=O)n2)cc1 [defactinib]
# Procedure, shortened: as §1
# [9] = compound: CNCc1ccc(-c2[nH]c3cc(F)cc4c3c2CCNC4=O)cc1 [rucaparib]
# Procedure, shortened: as §1
# [10] = compound: COC(=O)N[C@@H](C)CNc1nccc(-c2cn(C(C)C)nc2-c2cc(Cl)cc(NS(C)(=O)=O)c2F)n1 [encorafenib]
# Procedure, shortened: as §1
# [11] = compound: COC(=O)[C@H](CCSC)NC(=O)C1=C(C=C(C=C1)NC[C@H](CS)N)C2=CC=CC=C2
# Procedure, shortened: as §1
# [12] = compound: CO[C@H]1C[C@@H]2CC[C@@H](C)[C@@](O)(O2)C(=O)C(=O)N2CCCC[C@H]2C(=O)O[C@H]([C@H](C)C[C@@H]2CC[C@H](n3cnnn3)[C@H](OC)C2)CC(=O)[C@H](C)/C=C(\C)[C@@H](O)[C@@H](OC)C(=O)[C@H](C)C[C@H](C)/C=C/C=C/C=C/1C [zotarolimus]
# Procedure, shortened: as §1
# [13] = compound: COc1cc(C(=O)O)ccc1NC(=O)[C@@H]1N[C@@H](CC(C)(C)C)[C@](C#N)(c2ccc(Cl)cc2F)[C@H]1c1cccc(Cl)c1F [idasanutlin]
# Procedure, shortened: as §1
# [14] = compound: COc1cc2nc(-c3cc(F)ccc3O)nc(N[C@@H]3CNC[C@H]3C(C)(C)O)c2cc1OC
# Procedure, shortened: as §1
# [15] = compound: COc1cc2ncnc(Nc3ccc(F)c(Cl)c3)c2cc1OCCCN1CCOCC1 [gefitinib]
# Procedure, shortened: as §1
# [16] = compound: CS(=O)(=O)CCNCc1ccc(-c2ccc3ncnc(Nc4ccc(OCc5cccc(F)c5)c(Cl)c4)c3c2)o1 [lapatinib]
# Procedure, shortened: as §1
# [17] = compound: CS(=O)(=O)N1CCN(Cc2cc3nc(-c4cccc5[nH]ncc45)nc(N4CCOCC4)c3s2)CC1 [pictilisib]
# Procedure, shortened: as §1
# [18] = compound: COC1=CC=C(C=C1)CN2C=CC3=C2C=C(C=C3)C(=O)NO
# Procedure, shortened: as §1
# [19] = compound: CN1CCN(c2nc(C3=C(c4c[nH]c5ccccc45)C(=O)NC3=O)c3ccccc3n2)CC1 [sotrastaurin]
# Procedure, shortened: as §1
# [20] = compound: CON(C)C(=O)N1N=C(c2cc(F)ccc2F)S[C@@]1(CCCN)c1ccccc1 [filanesib]
# Procedure, shortened: as §1
Target,log2 fold change [1],log2 fold change [2],log2 fold change [3],log2 fold change [4],log2 fold change [5],log2 fold change [6],log2 fold change [7],log2 fold change [8],log2 fold change [9],log2 fold change [10],log2 fold change [11],log2 fold change [12],log2 fold change [13],log2 fold change [14],log2 fold change [15],log2 fold change [16],log2 fold change [17],log2 fold change [18],log2 fold change [19],log2 fold change [20]
"POLG, A0A3B3IS91",inactive: -0.09,inactive: -0.002,inactive: 0.065,inactive: -0.082,inactive: -0.258,inactive: -0.271,–,–,–,–,–,–,–,–,–,–,–,–,–,–
PPIA isoform 2 (UniProt P62937),inactive: -0.008,inactive: -0.082,–,inactive: -0.08,inactive: -0.381,inactive: -0.033,inactive: 0.082,inactive: -0.056,inactive: -0.42,inactive: 0,inactive: 0.074,inactive: -0.055,inactive: -0.458,inactive: 0.173,inactive: -0.008,inactive: -0.162,inactive: -0.007,–,–,–
PORCN (UniProt Q9H237),–,–,inactive: 0.353,–,–,–,inactive: -0.015,inactive: 0.138,–,–,inactive: 0.127,inactive: 0.033,–,–,–,–,–,–,–,–
PPHLN1 (UniProt Q8NEY8),inactive: -0.174,–,inactive: 0.014,inactive: -0.03,inactive: -0.024,inactive: 0.022,–,inactive: 0.061,inactive: 0.053,inactive: -0.122,inactive: 0.071,–,–,inactive: 0.071,–,inactive: -0.013,inactive: 0.057,inactive: -0.099,–,–
PPM1B isoform 2 (UniProt O75688),–,–,–,–,inactive: -0.065,inactive: 0.034,–,–,–,–,–,–,–,–,–,–,–,–,–,–
PPIG (UniProt Q13427),inactive: 0.081,–,–,inactive: -0.191,inactive: 0.065,inactive: 0.049,–,–,–,–,–,–,–,inactive: 0.129,–,inactive: -0.079,–,inactive: 0.04,–,–
POLR2E (UniProt P19388),inactive: -0.077,inactive: -0.009,inactive: -0.076,inactive: 0.104,inactive: -0.21,inactive: 0.029,–,inactive: 0.216,inactive: 0.153,inactive: 0.025,inactive: -0.081,inactive: -0.065,inactive: -0.061,active: 0.291,inactive: 0.007,inactive: -0.013,inactive: 0.063,inactive: 0.095,–,–
POLE4 (UniProt Q9NR33),–,inactive: -0.068,inactive: 0.023,–,inactive: 0.023,inactive: -0.012,inactive: -0.145,inactive: -0.045,inactive: 0,inactive: -0.007,inactive: -0.043,inactive: 0.109,inactive: -0.078,inactive: -0.156,inactive: -0.009,inactive: 0.028,inactive: -0.032,inactive: -0.029,inactive: 0.057,inactive: -0.005
POF1B isoform 1 (UniProt Q8WVV4),inactive: -0.349,inactive: -0.298,–,inactive: -0.26,inactive: 1.92,inactive: -0.01,–,inactive: -0.067,inactive: -0.305,inactive: -0.154,inactive: -0.12,–,–,–,inactive: 0.321,–,–,–,–,–
PLEKHO2 (UniProt Q8TD55),–,inactive: 0.13,inactive: -0.117,–,inactive: -0.087,inactive: 0.018,inactive: -0.02,inactive: -0.053,inactive: 0.057,inactive: 0.112,inactive: -0.108,inactive: -0.106,–,inactive: 0.109,inactive: 0.022,inactive: 0.069,inactive: 0.026,inactive: -0.07,–,–
PLIN3 isoform 2 (UniProt O60664),–,–,–,–,inactive: 0.085,inactive: 0.039,–,–,inactive: 0.194,inactive: -0.206,–,–,inactive: 0.279,inactive: -0.02,–,inactive: -0.058,–,–,inactive: 0.317,inactive: 0.226

# An excerpt of the results above:
Target,log2 fold change [1],log2 fold change [2],log2 fold change [3],log2 fold change [4],log2 fold change [5],log2 fold change [6],log2 fold change [7],log2 fold change [8],log2 fold change [9],log2 fold change [10],log2 fold change [11],log2 fold change [12],log2 fold change [13],log2 fold change [14],log2 fold change [15],log2 fold change [16],log2 fold change [17],log2 fold change [18],log2 fold change [19],log2 fold change [20]
PLEKHO2 (UniProt Q8TD55),–,inactive: 0.13,inactive: -0.117,–,inactive: -0.087,inactive: 0.018,inactive: -0.02,inactive: -0.053,inactive: 0.057,inactive: 0.112,inactive: -0.108,inactive: -0.106,–,inactive: 0.109,inactive: 0.022,inactive: 0.069,inactive: 0.026,inactive: -0.07,–,–
PLIN3 isoform 2 (UniProt O60664),–,–,–,–,inactive: 0.085,inactive: 0.039,–,–,inactive: 0.194,inactive: -0.206,–,–,inactive: 0.279,inactive: -0.02,–,inactive: -0.058,–,–,inactive: 0.317,inactive: 0.226
